# Experimental data published in ChEMBL document CHEMBL5674883, “The Heterochromatin Landscape in Migrating Cells and the Importance of H3K27me3 for Associated Transcriptome Alterations” (Cells, 2018).
# Sequences of proteins named here, by UniProt entry; tags and fusion partners are left off.
# UniProt Q61188, whole entry: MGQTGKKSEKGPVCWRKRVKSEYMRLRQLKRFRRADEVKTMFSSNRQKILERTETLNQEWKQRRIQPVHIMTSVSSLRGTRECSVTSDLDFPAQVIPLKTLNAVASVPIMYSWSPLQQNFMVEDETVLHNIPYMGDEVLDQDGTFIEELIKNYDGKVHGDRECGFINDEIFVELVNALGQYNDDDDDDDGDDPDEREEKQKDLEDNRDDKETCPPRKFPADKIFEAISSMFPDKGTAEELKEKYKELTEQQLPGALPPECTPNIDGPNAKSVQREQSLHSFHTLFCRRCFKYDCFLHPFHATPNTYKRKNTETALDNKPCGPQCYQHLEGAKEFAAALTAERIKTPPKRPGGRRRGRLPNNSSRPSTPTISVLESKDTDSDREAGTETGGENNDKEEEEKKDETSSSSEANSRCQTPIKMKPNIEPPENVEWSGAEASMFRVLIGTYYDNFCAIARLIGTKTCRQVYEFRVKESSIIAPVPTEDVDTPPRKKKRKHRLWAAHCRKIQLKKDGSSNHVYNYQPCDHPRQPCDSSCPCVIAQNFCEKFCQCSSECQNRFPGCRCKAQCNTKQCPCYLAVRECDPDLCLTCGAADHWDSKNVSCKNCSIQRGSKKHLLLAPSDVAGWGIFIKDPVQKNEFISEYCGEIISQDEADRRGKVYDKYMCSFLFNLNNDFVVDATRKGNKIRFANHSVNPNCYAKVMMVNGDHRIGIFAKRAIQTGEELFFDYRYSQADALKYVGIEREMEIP
# Further values from the same series stand in other lists.
# Legend:
# Type in all cases: cell-based
# [1] = target: Histone-lysine N-methyltransferase EZH2 (Mus musculus) (UniProt Q61188); assay: Inhibition of EZH2 in mouse B16-F1 migrating cells assessed as fold change in H3K27me3-independent regulated Arid5a-mRNA expression at 3 uM measured by ChIP-seq analysis relative to control cells
# [2] = target: Histone-lysine N-methyltransferase EZH2 (Mus musculus) (UniProt Q61188); assay: Inhibition of EZH2 in mouse B16-F1 migrating cells assessed as fold change in H3K27me3-buffered regulated Fancm-mRNA expression at 3 uM measured by ChIP-seq analysis relative to control cells
# [3] = target: Histone-lysine N-methyltransferase EZH2 (Mus musculus) (UniProt Q61188); assay: Inhibition of EZH2 in mouse B16-F1 migrating cells assessed as fold change in H3K27me3-independent regulated Gm3839-mRNA expression at 3 uM measured by ChIP-seq analysis relative to control cells
# [4] = target: Histone-lysine N-methyltransferase EZH2 (Mus musculus) (UniProt Q61188); assay: Inhibition of EZH2 in mouse B16-F1 migrating cells assessed as fold change in H3K27me3-buffered regulated Tmbim1-mRNA expression at 3 uM measured by ChIP-seq analysis relative to control cells
# [5] = target: Histone-lysine N-methyltransferase EZH2 (Mus musculus) (UniProt Q61188); assay: Inhibition of EZH2 in mouse B16-F1 migrating cells assessed as fold change in H3K27me3-buffered regulated Cited2-mRNA expression at 3 uM measured by ChIP-seq analysis relative to control cells
# [6] = target: Histone-lysine N-methyltransferase EZH2 (Mus musculus) (UniProt Q61188); assay: Inhibition of EZH2 in mouse B16-F1 migrating cells assessed as fold change in H3K27me3-buffered regulated Dek-mRNA expression at 3 uM measured by ChIP-seq analysis relative to control cells
# [7] = target: Histone-lysine N-methyltransferase EZH2 (Mus musculus) (UniProt Q61188); assay: Inhibition of EZH2 in mouse B16-F1 migrating cells assessed as fold change in H3K27me3-dependent regulated Spry2-mRNA expression at 3 uM measured by ChIP-seq analysis relative to control cells
# [8] = target: Histone-lysine N-methyltransferase EZH2 (Mus musculus) (UniProt Q61188); assay: Inhibition of EZH2 in mouse B16-F1 migrating cells assessed as fold change in H3K27me3-buffered regulated Wfdc1-mRNA expression at 3 uM measured by ChIP-seq analysis relative to control cells
# [9] = target: Histone-lysine N-methyltransferase EZH2 (Mus musculus) (UniProt Q61188); assay: Inhibition of EZH2 in mouse B16-F1 migrating cells assessed as fold change in H3K27me3-buffered regulated Slc4a3-mRNA expression at 3 uM measured by ChIP-seq analysis relative to control cells
# [10] = target: Histone-lysine N-methyltransferase EZH2 (Mus musculus) (UniProt Q61188); assay: Inhibition of EZH2 in mouse B16-F1 migrating cells assessed as fold change in H3K27me3-independent regulated Runx2-mRNA expression at 3 uM measured by ChIP-seq analysis relative to control cells
# [11] = target: Histone-lysine N-methyltransferase EZH2 (Mus musculus) (UniProt Q61188); assay: Inhibition of EZH2 in mouse B16-F1 migrating cells assessed as fold change in H3K27me3-buffered regulated Msmo1-mRNA expression at 3 uM measured by ChIP-seq analysis relative to control cells
# [12] = target: Histone-lysine N-methyltransferase EZH2 (Mus musculus) (UniProt Q61188); assay: Inhibition of EZH2 in mouse B16-F1 migrating cells assessed as fold change in H3K27me3-independent regulated Sema4g-mRNA expression at 3 uM measured by ChIP-seq analysis relative to control cells
# [13] = target: Histone-lysine N-methyltransferase EZH2 (Mus musculus) (UniProt Q61188); assay: Inhibition of EZH2 in mouse B16-F1 migrating cells assessed as fold change in H3K27me3-buffered regulated Grasp-mRNA expression at 3 uM measured by ChIP-seq analysis relative to control cells
# [14] = target: Histone-lysine N-methyltransferase EZH2 (Mus musculus) (UniProt Q61188); assay: Inhibition of EZH2 in mouse B16-F1 migrating cells assessed as fold change in H3K27me3-independent regulated Sod3-mRNA expression at 3 uM measured by ChIP-seq analysis relative to control cells
# [15] = target: Histone-lysine N-methyltransferase EZH2 (Mus musculus) (UniProt Q61188); assay: Inhibition of EZH2 in mouse B16-F1 migrating cells assessed as fold change in H3K27me3-dependent regulated Zyx-mRNA expression at 3 uM measured by ChIP-seq analysis relative to control cells
# [16] = target: Histone-lysine N-methyltransferase EZH2 (Mus musculus) (UniProt Q61188); assay: Inhibition of EZH2 in mouse B16-F1 migrating cells assessed as fold change in H3K27me3-buffered regulated Isoc2b-mRNA expression at 3 uM measured by ChIP-seq analysis relative to control cells
# [17] = target: T1, RNA polymerase II (Mus musculus) (UniProt P08775+Q8CFI7+P97760+A0A3Q4L2S8+Q80UW8+P61219+P62488+Q923G2+P60898+O08740+Q63871+P62876); assay: Inhibition of RNA polymerase II in mouse B16-F1 migrating cells assessed as fold change in Tyw5-RNA stability at 0.1 mM measured by ChIP-seq analysis relative to control cells
# [18] = target: T1, RNA polymerase II (Mus musculus); assay: Inhibition of RNA polymerase II in mouse B16-F1 migrating cells assessed as fold change in E2f2-RNA stability at 0.1 mM measured by ChIP-seq analysis relative to control cells
# [19] = target: T1, RNA polymerase II (Mus musculus); assay: Inhibition of RNA polymerase II in mouse B16-F1 migrating cells assessed as fold change in Pcdh7-RNA stability at 0.1 mM measured by ChIP-seq analysis relative to control cells
# [20] = target: T1, RNA polymerase II (Mus musculus); assay: Inhibition of RNA polymerase II in mouse B16-F1 migrating cells assessed as fold change in Rasd2-RNA stability at 0.1 mM measured by ChIP-seq analysis relative to control cells
# [21] = target: T1, RNA polymerase II (Mus musculus); assay: Inhibition of RNA polymerase II in mouse B16-F1 migrating cells assessed as fold change in Ppp1r12a-RNA stability at 0.1 mM measured by ChIP-seq analysis relative to control cells
# [22] = target: T1, RNA polymerase II (Mus musculus); assay: Inhibition of RNA polymerase II in mouse B16-F1 migrating cells assessed as fold change in Cep57l1-RNA stability at 0.1 mM measured by ChIP-seq analysis relative to control cells
# [23] = target: T1, RNA polymerase II (Mus musculus); assay: Inhibition of RNA polymerase II in mouse B16-F1 migrating cells assessed as fold change in Ccdc124-RNA stability at 0.1 mM measured by ChIP-seq analysis relative to control cells
# [24] = target: T1, RNA polymerase II (Mus musculus); assay: Inhibition of RNA polymerase II in mouse B16-F1 migrating cells assessed as fold change in Trp53inp1-RNA stability at 0.1 mM measured by ChIP-seq analysis relative to control cells
# [25] = target: T1, RNA polymerase II (Mus musculus); assay: Inhibition of RNA polymerase II in mouse B16-F1 migrating cells assessed as fold change in Kif11-RNA stability at 0.1 mM measured by ChIP-seq analysis relative to control cells
# [26] = target: T1, RNA polymerase II (Mus musculus); assay: Inhibition of RNA polymerase II in mouse B16-F1 migrating cells assessed as fold change in Pet2-RNA stability at 0.1 mM measured by ChIP-seq analysis relative to control cells
# [27] = target: T1, RNA polymerase II (Mus musculus); assay: Inhibition of RNA polymerase II in mouse B16-F1 migrating cells assessed as fold change in Ngly1-RNA stability at 0.1 mM measured by ChIP-seq analysis relative to control cells
# [28] = target: T1, RNA polymerase II (Mus musculus); assay: Inhibition of RNA polymerase II in mouse B16-F1 migrating cells assessed as fold change in Rplp0-RNA stability at 0.1 mM measured by ChIP-seq analysis relative to control cells
# [29] = target: T1, RNA polymerase II (Mus musculus); assay: Inhibition of RNA polymerase II in mouse B16-F1 migrating cells assessed as fold change in Tmem97-RNA stability at 0.1 mM measured by ChIP-seq analysis relative to control cells
# [30] = target: T1, RNA polymerase II (Mus musculus); assay: Inhibition of RNA polymerase II in mouse B16-F1 migrating cells assessed as fold change in Lrrcc1-RNA stability at 0.1 mM measured by ChIP-seq analysis relative to control cells
smiles,measurement,setting,value
CCCc1cc(C)[nH]c(=O)c1CNC(=O)c1cc(-c2ccnc(N3CCN(C)CC3)c2)cc2c1cnn2C(C)C,log2FC,[1],0.42
same,log2FC,[2],-0.4
same,log2FC,[3],0.51
same,log2FC,[4],0.44
same,log2FC,[5],-0.69
same,log2FC,[6],-0.46
same,log2FC,[7],0.2
same,log2FC,[8],0.58
same,log2FC,[9],-0.45
same,log2FC,[10],0.73
same,log2FC,[11],0.51
same,log2FC,[12],0.48
same,log2FC,[13],-0.48
same,log2FC,[14],1.06
same,log2FC,[15],0.17
same,log2FC,[16],0.43
OC[C@H]1O[C@@H](n2cnc3cc(Cl)c(Cl)cc32)[C@H](O)[C@@H]1O,log2FC,[17],-0.78
same,log2FC,[18],-0.65
same,log2FC,[19],-0.6
same,log2FC,[20],1.14
same,log2FC,[21],-0.6
same,log2FC,[22],-0.66
same,log2FC,[23],0.5
same,log2FC,[24],-0.87
same,log2FC,[25],-0.88
same,log2FC,[26],-0.78
same,log2FC,[27],-0.55
same,log2FC,[28],0.5
same,log2FC,[29],0.52
same,log2FC,[30],-0.85
